# Results are given in words; binding and its absence hold for the method and conditions named. Binding seen in cells or lysates may run through a third protein. Where a sequence is shown, tags or fusion partners need not be part of it.
# The chains behind the UniProt entries cited, without tags or fusion partners.
# UniProt O00429: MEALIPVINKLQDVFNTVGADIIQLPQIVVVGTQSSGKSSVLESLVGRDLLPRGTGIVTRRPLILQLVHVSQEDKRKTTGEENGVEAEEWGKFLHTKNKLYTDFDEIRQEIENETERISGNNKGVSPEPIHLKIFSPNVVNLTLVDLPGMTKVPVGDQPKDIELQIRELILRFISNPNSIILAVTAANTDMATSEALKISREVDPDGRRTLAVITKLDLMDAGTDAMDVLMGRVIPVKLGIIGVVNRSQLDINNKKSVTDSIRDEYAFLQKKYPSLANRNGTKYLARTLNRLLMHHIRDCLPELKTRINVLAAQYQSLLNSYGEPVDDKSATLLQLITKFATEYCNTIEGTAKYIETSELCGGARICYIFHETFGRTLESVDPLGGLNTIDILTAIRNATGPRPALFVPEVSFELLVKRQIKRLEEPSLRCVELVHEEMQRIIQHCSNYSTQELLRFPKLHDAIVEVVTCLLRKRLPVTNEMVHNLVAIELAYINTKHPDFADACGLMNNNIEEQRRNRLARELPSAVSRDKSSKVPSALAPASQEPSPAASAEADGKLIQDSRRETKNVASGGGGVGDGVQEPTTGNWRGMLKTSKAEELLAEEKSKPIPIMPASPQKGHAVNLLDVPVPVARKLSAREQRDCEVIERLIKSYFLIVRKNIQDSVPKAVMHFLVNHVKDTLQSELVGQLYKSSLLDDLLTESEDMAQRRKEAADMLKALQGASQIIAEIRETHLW
# What was measured:
# [1] = target: T1, MIEF1^Δ219-289 (V5-tagged) (human) (UniProt Q9NQG6); test: co-IP; 293T cells transfected with V5-tagged MIEF1, MIEF2 or deletion mutants, in vivo crosslinked with 1% formaldehyde (10 min, room temperature), lysed in 1% NP-40 with sonication; anti-V5 agarose beads 2 h at room temperature; Western blot of endogenous partners
# T1 sequence: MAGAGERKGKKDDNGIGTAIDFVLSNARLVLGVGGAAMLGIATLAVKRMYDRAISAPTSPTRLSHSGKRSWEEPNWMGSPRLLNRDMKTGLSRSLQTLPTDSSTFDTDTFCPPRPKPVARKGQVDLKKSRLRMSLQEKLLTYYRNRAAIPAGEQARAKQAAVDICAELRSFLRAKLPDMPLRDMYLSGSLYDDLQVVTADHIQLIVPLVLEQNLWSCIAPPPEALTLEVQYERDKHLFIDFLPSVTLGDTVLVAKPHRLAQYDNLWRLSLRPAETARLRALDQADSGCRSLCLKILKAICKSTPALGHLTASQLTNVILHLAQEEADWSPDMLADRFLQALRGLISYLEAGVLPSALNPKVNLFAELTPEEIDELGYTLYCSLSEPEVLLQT
# [2] = target: T2, MIEF2^Δ235-250 (V5-tagged) (human) (UniProt Q96C03); test: as above
# T2 sequence: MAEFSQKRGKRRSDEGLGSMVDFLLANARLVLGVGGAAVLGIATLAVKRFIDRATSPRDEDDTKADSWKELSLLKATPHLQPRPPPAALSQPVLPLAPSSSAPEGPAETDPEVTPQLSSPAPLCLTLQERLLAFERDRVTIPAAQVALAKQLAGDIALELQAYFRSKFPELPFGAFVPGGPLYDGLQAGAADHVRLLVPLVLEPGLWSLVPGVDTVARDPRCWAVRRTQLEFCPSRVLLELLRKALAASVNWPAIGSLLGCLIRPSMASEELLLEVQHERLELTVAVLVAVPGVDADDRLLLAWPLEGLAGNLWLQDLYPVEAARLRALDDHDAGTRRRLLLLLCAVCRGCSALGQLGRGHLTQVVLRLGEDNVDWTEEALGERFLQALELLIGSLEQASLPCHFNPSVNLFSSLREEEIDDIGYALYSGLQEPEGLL
substance,measurement,setting,value
"dynamin-related protein 1 (Drp1), endogenous (from UniProt O00429 1-736)",binding,[1],no binding
same,binding,[2],no binding

# From article PMC8532385
